Test results: paper PMC11519604, “TOX2 nuclear-cytosol translocation is linked to leukemogenesis of acute T-cell leukemia by repressing TIM3 transcription” (Cell Death and Differentiation, 2024)
No constants are given. Whether binding was seen depends on the method and setting. For part of these data: Binding seen in cells or lysates may run through a third protein. Some results given as binding are weak or reduced against the parent protein; the word gives no strength. For part of these data: Tags and fused reporters may be left off the sequences shown.

By UniProt entry, the sequences of proteins in these tests, tags left out.
UniProt O15379: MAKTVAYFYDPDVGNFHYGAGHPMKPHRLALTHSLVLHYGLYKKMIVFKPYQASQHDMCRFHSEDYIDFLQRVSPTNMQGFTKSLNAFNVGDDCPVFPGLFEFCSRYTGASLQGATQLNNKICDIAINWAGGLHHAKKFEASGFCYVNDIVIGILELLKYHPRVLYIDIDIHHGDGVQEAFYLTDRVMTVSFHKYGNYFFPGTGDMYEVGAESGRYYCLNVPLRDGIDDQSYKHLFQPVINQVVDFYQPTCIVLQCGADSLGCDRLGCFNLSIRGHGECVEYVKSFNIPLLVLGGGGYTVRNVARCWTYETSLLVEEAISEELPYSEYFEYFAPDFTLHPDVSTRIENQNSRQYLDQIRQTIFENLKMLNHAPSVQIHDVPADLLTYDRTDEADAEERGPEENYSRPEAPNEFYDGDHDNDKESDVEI

T1: TOX (thymocyte selection-associated high mobility group box protein), endogenous (human (endogenous in Jurkat, T2 and normal T cells)) (UniProt O94900)
T1 sequence: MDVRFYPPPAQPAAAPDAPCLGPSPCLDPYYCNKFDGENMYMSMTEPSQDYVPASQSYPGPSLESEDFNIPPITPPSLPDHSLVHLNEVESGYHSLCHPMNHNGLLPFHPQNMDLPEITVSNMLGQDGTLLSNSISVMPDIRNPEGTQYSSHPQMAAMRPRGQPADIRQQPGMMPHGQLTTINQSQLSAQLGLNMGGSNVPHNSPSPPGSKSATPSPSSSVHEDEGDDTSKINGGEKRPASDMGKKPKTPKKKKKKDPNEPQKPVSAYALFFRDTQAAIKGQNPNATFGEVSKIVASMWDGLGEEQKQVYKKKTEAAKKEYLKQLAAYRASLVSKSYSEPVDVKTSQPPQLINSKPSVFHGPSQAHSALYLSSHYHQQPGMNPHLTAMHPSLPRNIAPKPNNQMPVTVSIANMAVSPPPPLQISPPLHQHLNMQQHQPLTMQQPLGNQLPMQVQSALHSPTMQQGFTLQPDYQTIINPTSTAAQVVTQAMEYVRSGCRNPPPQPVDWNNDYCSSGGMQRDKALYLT

T2: TOX-Flag (full-length TOX) (UniProt O94900)
T2 sequence: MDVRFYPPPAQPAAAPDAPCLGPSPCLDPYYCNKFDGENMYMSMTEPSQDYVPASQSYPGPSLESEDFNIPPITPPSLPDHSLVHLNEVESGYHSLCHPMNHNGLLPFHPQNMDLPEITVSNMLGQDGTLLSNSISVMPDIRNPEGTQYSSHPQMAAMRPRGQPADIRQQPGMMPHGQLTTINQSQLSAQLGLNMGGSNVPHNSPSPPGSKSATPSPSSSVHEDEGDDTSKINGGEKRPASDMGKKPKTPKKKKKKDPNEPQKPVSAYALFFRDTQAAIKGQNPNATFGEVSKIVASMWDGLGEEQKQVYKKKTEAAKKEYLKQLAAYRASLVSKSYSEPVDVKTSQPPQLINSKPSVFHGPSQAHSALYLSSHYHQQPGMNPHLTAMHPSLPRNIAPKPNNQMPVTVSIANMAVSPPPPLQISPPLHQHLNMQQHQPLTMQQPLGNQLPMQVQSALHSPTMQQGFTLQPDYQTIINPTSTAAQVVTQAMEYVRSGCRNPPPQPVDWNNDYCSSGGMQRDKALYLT


Key:
[1] = target: T1, TOX (thymocyte selection-associated high mobility group box protein), endogenous (human (endogenous in Jurkat, T2 and normal T cells)); assay: co-IP; nuclear protein of Jurkat cells, immunoprecipitation with anti-TOX antibody, immunoblot
[2] = target: T1, TOX (thymocyte selection-associated high mobility group box protein), endogenous (human (endogenous in Jurkat, T2 and normal T cells)); assay: native gel or EMSA; nuclear protein, Native-page 5% G-250 Sample Additive, SDS-free Tris-Gly gels at 4 °C, immunoblot for TOX and TOX2
[3] = target: T2, TOX-Flag (full-length TOX); assay: co-IP; exogenous co-IP in HEK293T cells co-transfected with full-length TOX, TOX-Flag or TOX2-HA and truncated TOX or TOX2 plasmids; Co-IP kit lysis buffer, antibody overnight at 4 °C, protein A/G beads

| Molecule | binding [1] | binding [2] | binding [3] |
| --- | --- | --- | --- |
| HDAC3, endogenous (from UniProt O15379 1-428) (enzyme) | binds |  |  |
| TOX2, endogenous (protein, UniProt Q96NM4 1-488) MQQTRTEAVAGAFSRCLGFCGMRLGLLLLARHWCIAGVFPQKFDGDSAYVGMSDGNPELLSTSQTYNGQSENNEDYEIPPITPPNLPEPSLLHLGDHEASYHSLCHGLTPNGLLPAYSYQAMDLPAIMVSNMLAQDSHLLSGQLPTIQEMVHSEVAAYDSGRPGPLLGRPAMLASHMSALSQSQLISQMGIRSSIAHSSPSPPGSKSATPSPSSSTQEEESEVHFKISGEKRPSADPGKKAKNPKKKKKKDPNEPQKPVSAYALFFRDTQAAIKGQNPSATFGDVSKIVASMWDSLGEEQKQSSPDQGETKSTQANPPAKMLPPKQPMYAMPGLASFLTPSDLQAFRSGASPASLARTLGSKSLLPGLSASPPPPPSFPLSPTLHQQLSLPPHAQGALLSPPVSMSPAPQPPVLPTPMALQVQLAMSPSPPGPQDFPHISEFPSSSGSCSPGPSNPTSSGDWDSSYPSGECGISTCSLLPRDKSLYLT | binds | binds |  |
| TOX(N)-His (1–360) (domain or fragment, UniProt O94900 1-360) MDVRFYPPPAQPAAAPDAPCLGPSPCLDPYYCNKFDGENMYMSMTEPSQDYVPASQSYPGPSLESEDFNIPPITPPSLPDHSLVHLNEVESGYHSLCHPMNHNGLLPFHPQNMDLPEITVSNMLGQDGTLLSNSISVMPDIRNPEGTQYSSHPQMAAMRPRGQPADIRQQPGMMPHGQLTTINQSQLSAQLGLNMGGSNVPHNSPSPPGSKSATPSPSSSVHEDEGDDTSKINGGEKRPASDMGKKPKTPKKKKKKDPNEPQKPVSAYALFFRDTQAAIKGQNPNATFGEVSKIVASMWDGLGEEQKQVYKKKTEAAKKEYLKQLAAYRASLVSKSYSEPVDVKTSQPPQLINSKPSVFH |  |  | binds |
| TOX(C)-His (257–526) (domain or fragment, UniProt O94900 257-526) DPNEPQKPVSAYALFFRDTQAAIKGQNPNATFGEVSKIVASMWDGLGEEQKQVYKKKTEAAKKEYLKQLAAYRASLVSKSYSEPVDVKTSQPPQLINSKPSVFHGPSQAHSALYLSSHYHQQPGMNPHLTAMHPSLPRNIAPKPNNQMPVTVSIANMAVSPPPPLQISPPLHQHLNMQQHQPLTMQQPLGNQLPMQVQSALHSPTMQQGFTLQPDYQTIINPTSTAAQVVTQAMEYVRSGCRNPPPQPVDWNNDYCSSGGMQRDKALYLT |  |  | binds |
| TOX(C2)-Myc (361–526) (domain or fragment, UniProt O94900 361-526) GPSQAHSALYLSSHYHQQPGMNPHLTAMHPSLPRNIAPKPNNQMPVTVSIANMAVSPPPPLQISPPLHQHLNMQQHQPLTMQQPLGNQLPMQVQSALHSPTMQQGFTLQPDYQTIINPTSTAAQVVTQAMEYVRSGCRNPPPQPVDWNNDYCSSGGMQRDKALYLT |  |  | no binding |
